According to patent US9000028B2, “Indole and indazole compounds as an inhibitor of cellular necrosis” (LG Life Sciences Ltd., priority 2007, dated 2015):
Some of these results come from one statement about several compounds together. At least one compound was matched to its structure with a doubt left.

System: cardiac cells (H9C2, white rat cardiomyocyte)
Test: Protective effect when tBHP was treated on cardiac cells (SRB method)
Assay type: cell-based
Details: tBHP 400 uM, 2 h
Method: In order to determine the protective effect on pancreatic cells, Linm5F cells, a sort of the beta cells, were distributed into the 96-well plate in the amount of 2×10^4 cells/well, and incubated for 24 h. The Example compounds were serially diluted by 3-fold to the final concentration of 30, 10, 3, 1, 0.3, 0.1 uM, by which each well was treated for 1 h. Cells were treated with tBHP at the final concentration of 400 uM, and further incubated for 5 h. Protective effects were determined using SRB (Sulforhodamine B Protein) method in which total amount of cellular protein is stained. Briefly, cells were incubated for 5 h, 50 uL of 4% formaldehyde solution was added to each well to fix the cells, and stored for about 30 min at room temperature. After discarding the media, each well was washed with distilled water 2-3 times, and the plate was dried in an oven at 50° C. 50 uL of SRB solution was added to each well, and placed for about 30 min at room temperature. After removing SRB solution, the plate was washed with 1% acetic acid solution 2-3 times. […]
In order to assess the protective effect on cardiac cells, H9C2 cells were distributed in the amount of 1.5×10^4 cells/well, and incubated for 24 h. […] Protective effect of each compound was determined using the same SRB method as in Linm5F of above mentioned 2).

SMILES: COc1ccc(-c2cc3cc(CN4CCS(=O)(=O)CC4)cc(NC4CCOCC4)c3[nH]2)cc1 [Example 39, (Tetrahydropyran-4-yl)-[2-(4-methoxy)phenyl-5-(1,1-dioxo-thiomorpholin-4-yl)methyl-1H-indol-7-yl]amine]
- EC50: ≤ 200 nM
